± gives the standard deviation of the averaged measurements. Values are relative to the signal before dosing, not to a vehicle control; the signal also falls without drug.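 Fibroblast labels name human fibroblasts: mostly primary ones from tissues such as uterus (C12385, HUF), lung (H6013), bone (Hs27A), adrenal (HADF) and skin (WS1), plus mammary HMF and breast cancer-associated Hs343T. The cancer cells are basal-like or mesenchymal-like triple-negative breast cancer lines. The paper calls a changed response a hit when it shifts by more than 3x the replicate standard deviation. The tissue of the other fibroblasts is not given here.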
Tested on: HCC1143
Test: relative JC-1 red fluorescence (viability) vs pre-drug, coculture with fibroblast (fraction); higher = more viable cancer cells
Description: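 JC-1 labelled TNBC cells cocultured 1:1 (1,500 cells each) with CellTrace Violet stained primary or stromal fibroblasts in 384-well plates in FluoroBrite medium, treated with one of 42 anticancer drugs at 0.1, 1, 10 or 100 uM. JC-1 red fluorescence (mitochondrial integrity in cancer cells only) was read by plate reader every 8 h for 72 h. Values are normalised to each well's pre-drug value. The stock of one drug was tenfold lower, so its dose labels may be too high.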

Nc1ccn([C@@H]2O[C@H](CO)[C@@H](O)C2(F)F)c(=O)n1 [Gemcitabine]
relative JC-1 red fluorescence
Conditions | 8 h | 16 h | 24 h | 32 h | 40 h | 48 h | 56 h | 64 h | 72 h
10 µM, coculture fibroblast: C12385 | 0.843 ± 0.0074 | 0.732 ± 0.018 | 0.654 ± 0.036 | 0.573 ± 0.035 | 0.503 ± 0.035 | 0.449 ± 0.025 | 0.398 ± 0.032 | 0.351 ± 0.03 | 0.328 ± 0.026
10 µM, coculture fibroblast: H6013 | 0.768 ± 0.012 | 0.682 ± 0.055 | 0.642 ± 0.068 | 0.622 ± 0.08 | 0.566 ± 0.1 | 0.564 ± 0.12 | 0.542 ± 0.13 | 0.54 ± 0.15 | 0.514 ± 0.15
10 µM, coculture fibroblast: H6019 | 0.799 ± 0.021 | 0.721 ± 0.02 | 0.656 ± 0.02 | 0.577 ± 0.018 | 0.527 ± 0.024 | 0.486 ± 0.015 | 0.435 ± 0.016 | 0.395 ± 0.019 | 0.363 ± 0.015
10 µM, coculture fibroblast: H6076 | 0.771 ± 0.014 | 0.787 ± 0.015 | 0.707 ± 0.011 | 0.6256 ± 0.0033 | 0.6041 ± 0.0035 | 0.5766 ± 0.0031 | 0.541 ± 0.013 | 0.513 ± 0.017 | 0.5106 ± 0.0026
10 µM, coculture fibroblast: H6231 | 0.824 ± 0.028 | 0.8702 ± 0.0053 | 0.7742 ± 0.0075 | 0.603 ± 0.08 | 0.665 ± 0.031 | 0.626 ± 0.052 | 0.589 ± 0.056 | 0.54 ± 0.07 | 0.514 ± 0.099
10 µM, coculture fibroblast: HADF | 0.755 ± 0.04 | 0.678 ± 0.045 | 0.665 ± 0.054 | 0.667 ± 0.063 | 0.566 ± 0.056 | 0.536 ± 0.05 | 0.499 ± 0.034 | 0.468 ± 0.037 | 0.442 ± 0.021
10 µM, coculture fibroblast: HCFa | 0.84 ± 0.0093 | 0.7277 ± 0.0059 | 0.6952 ± 0.0029 | 0.658 ± 0.013 | 0.5729 ± 0.0042 | 0.5571 ± 0.0054 | 0.5086 ± 0.0018 | 0.478 ± 0.0024 | 0.426 ± 0.011
10 µM, coculture fibroblast: HCPF | 0.791 ± 0.013 | 0.8277 ± 0.0019 | 0.7522 ± 0.0032 | 0.607 ± 0.017 | 0.643 ± 0.01 | 0.592 ± 0.018 | 0.547 ± 0.01 | 0.501 ± 0.017 | 0.481 ± 0.022
10 µM, coculture fibroblast: HHSteC | 0.847 ± 0.029 | 0.766 ± 0.022 | 0.7313 ± 0.0037 | 0.6901 ± 0.0064 | 0.612 ± 0.018 | 0.585 ± 0.034 | 0.536 ± 0.043 | 0.503 ± 0.054 | 0.453 ± 0.051
10 µM, coculture fibroblast: HMF | 0.797 ± 0.015 | 0.8377 ± 0.0063 | 0.765 ± 0.032 | 0.647 ± 0.056 | 0.677 ± 0.033 | 0.644 ± 0.028 | 0.599 ± 0.022 | 0.5414 ± 0.0043 | 0.485 ± 0.013
10 µM, coculture fibroblast: HPFa | 0.898 ± 0.017 | 0.809 ± 0.014 | 0.744 ± 0.017 | 0.654 ± 0.0071 | 0.595 ± 0.0063 | 0.5702 ± 0.0052 | 0.518 ± 0.018 | 0.487 ± 0.019 | 0.459 ± 0.012
10 µM, coculture fibroblast: HUF | 0.865 ± 0.014 | 0.748 ± 0.021 | 0.688 ± 0.019 | 0.605 ± 0.026 | 0.549 ± 0.035 | 0.519 ± 0.043 | 0.472 ± 0.038 | 0.441 ± 0.042 | 0.418 ± 0.056
10 µM, coculture fibroblast: Hs5 | 0.851 ± 0.024 | 0.899 ± 0.024 | 0.839 ± 0.012 | 0.777 ± 0.011 | 0.7072 ± 0.0032 | 0.6646 ± 0.0061 | 0.624 ± 0.015 | 0.591 ± 0.025 | 0.571 ± 0.055
10 µM, coculture fibroblast: Hs27A | 0.723 ± 0.02 | 0.648 ± 0.0098 | 0.618 ± 0.015 | 0.668 ± 0.016 | 0.546 ± 0.019 | 0.54 ± 0.024 | 0.513 ± 0.022 | 0.5 ± 0.026 | 0.523 ± 0.015
10 µM, coculture fibroblast: Hs343T | 0.824 ± 0.015 | 0.8142 ± 0.0045 | 0.739 ± 0.012 | 0.67 ± 0.033 | 0.637 ± 0.028 | 0.602 ± 0.032 | 0.555 ± 0.043 | 0.527 ± 0.047 | 0.496 ± 0.044
10 µM, coculture fibroblast: WS1 | 0.829 ± 0.016 | 0.729 ± 0.021 | 0.666 ± 0.026 | 0.595 ± 0.042 | 0.54 ± 0.041 | 0.494 ± 0.05 | 0.446 ± 0.058 | 0.41 ± 0.054 | 0.374 ± 0.055
100 µM, coculture fibroblast: C12385 | 0.83 ± 0.0085 | 0.742 ± 0.017 | 0.661 ± 0.0083 | 0.585 ± 0.011 | 0.518 ± 0.011 | 0.465 ± 0.02 | 0.415 ± 0.017 | 0.375 ± 0.034 | 0.347 ± 0.036
100 µM, coculture fibroblast: H6013 | 0.746 ± 0.029 | 0.6441 ± 0.0049 | 0.584 ± 0.0097 | 0.5525 ± 0.0043 | 0.478 ± 0.013 | 0.47 ± 0.019 | 0.446 ± 0.024 | 0.438 ± 0.024 | 0.422 ± 0.03
100 µM, coculture fibroblast: H6019 | 0.835 ± 0.02 | 0.734 ± 0.018 | 0.691 ± 0.02 | 0.622 ± 0.027 | 0.553 ± 0.025 | 0.526 ± 0.03 | 0.483 ± 0.029 | 0.442 ± 0.028 | 0.422 ± 0.033
100 µM, coculture fibroblast: H6076 | 0.7866 ± 0.0073 | 0.781 ± 0.013 | 0.727 ± 0.02 | 0.678 ± 0.04 | 0.622 ± 0.029 | 0.609 ± 0.036 | 0.575 ± 0.042 | 0.553 ± 0.046 | 0.555 ± 0.054
100 µM, coculture fibroblast: H6231 | 0.808 ± 0.014 | 0.788 ± 0.041 | 0.701 ± 0.049 | 0.663 ± 0.043 | 0.622 ± 0.058 | 0.596 ± 0.062 | 0.561 ± 0.073 | 0.533 ± 0.076 | 0.512 ± 0.076
100 µM, coculture fibroblast: HADF | 0.7328 ± 0.00086 | 0.6724 ± 0.0048 | 0.608 ± 0.0095 | 0.597 ± 0.011 | 0.4999 ± 0.002 | 0.4715 ± 0.00067 | 0.4369 ± 0.0043 | 0.4075 ± 0.002 | 0.378 ± 0.0042
100 µM, coculture fibroblast: HCFa | 0.768 ± 0.021 | 0.657 ± 0.025 | 0.6 ± 0.038 | 0.57 ± 0.034 | 0.474 ± 0.049 | 0.449 ± 0.049 | 0.399 ± 0.056 | 0.367 ± 0.055 | 0.349 ± 0.034
100 µM, coculture fibroblast: HCPF | 0.8004 ± 0.0011 | 0.749 ± 0.0082 | 0.702 ± 0.0084 | 0.68 ± 0.025 | 0.61734 ± 0.0004 | 0.589 ± 0.009 | 0.5553 ± 0.0045 | 0.5307 ± 0.005 | 0.5264 ± 0.0025
100 µM, coculture fibroblast: HHSteC | 0.847 ± 0.029 | 0.761 ± 0.03 | 0.729 ± 0.035 | 0.695 ± 0.015 | 0.614 ± 0.014 | 0.583 ± 0.016 | 0.532 ± 0.018 | 0.505 ± 0.024 | 0.455 ± 0.022
100 µM, coculture fibroblast: HMF | 0.782 ± 0.0086 | 0.7983 ± 0.0011 | 0.725 ± 0.008 | 0.644 ± 0.021 | 0.6325 ± 0.0014 | 0.6079 ± 0.0051 | 0.557 ± 0.019 | 0.5145 ± 0.0049 | 0.484 ± 0.011
100 µM, coculture fibroblast: HPFa | 0.914 ± 0.014 | 0.8192 ± 0.0064 | 0.775 ± 0.012 | 0.704 ± 0.028 | 0.637 ± 0.033 | 0.612 ± 0.031 | 0.564 ± 0.023 | 0.548 ± 0.023 | 0.522 ± 0.019
100 µM, coculture fibroblast: HUF | 0.8707 ± 0.0052 | 0.781 ± 0.015 | 0.689 ± 0.023 | 0.601 ± 0.048 | 0.539 ± 0.057 | 0.509 ± 0.071 | 0.454 ± 0.08 | 0.415 ± 0.092 | 0.392 ± 0.093
100 µM, coculture fibroblast: Hs5 | 0.842 ± 0.014 | 0.854 ± 0.034 | 0.8 ± 0.017 | 0.765 ± 0.0088 | 0.692 ± 0.014 | 0.666 ± 0.01 | 0.639 ± 0.014 | 0.617 ± 0.0044 | 0.6138 ± 0.0022
100 µM, coculture fibroblast: Hs27A | 0.716 ± 0.045 | 0.649 ± 0.057 | 0.621 ± 0.059 | 0.645 ± 0.06 | 0.538 ± 0.077 | 0.543 ± 0.092 | 0.512 ± 0.095 | 0.505 ± 0.098 | 0.478 ± 0.071
100 µM, coculture fibroblast: Hs343T | 0.811 ± 0.025 | 0.8068 ± 0.0037 | 0.736 ± 0.011 | 0.6819 ± 0.0041 | 0.634 ± 0.0034 | 0.60514 ± 0.00043 | 0.5535 ± 0.0039 | 0.525 ± 0.009 | 0.5 ± 0.016
100 µM, coculture fibroblast: WS1 | 0.8287 ± 0.0056 | 0.727 ± 0.012 | 0.7014 ± 0.0059 | 0.631 ± 0.014 | 0.581 ± 0.0094 | 0.542 ± 0.0086 | 0.5053 ± 0.0046 | 0.463 ± 0.015 | 0.446 ± 0.0082

Source: the supplement of paper PMC6078165
